Strings that start with PEPTIDE1 are HELM notation: dots part the residues, brackets hold end groups and non-standard residues.
Assay: general procedure: Fmoc solid-phase peptide synthesis
Conditions: whole synthesis; for final HPLC purity: all wavelengths

Substance | isolated yield | final HPLC purity
PEPTIDE1{K.[DIT].K.W.[DIT].K.G.K.L}$$$$V2.0 | 4% | ≥ 96%
PEPTIDE1{K.[DIT].K.[DIT].W.[DIT].K.G.K.L}$$$$V2.0 | 10% | ≥ 97%
PEPTIDE1{K.[DIT].K.[DIT].[AEEA].W.Y.K.G.K.L}$$$$V2.0 | 3% | ≥ 99%
PEPTIDE1{K.[DIT].W.[DIT].K.G.K.L}$$$$V2.0 | 5% | ≥ 99%
PEPTIDE1{W.Y.K.G.K.L.[AEEA].[DIT].G}$$$$V2.0 | 18% | ≥ 99%
PEPTIDE1{W.[DIT].K.G.K.L.[AEEA].[DIT].G}$$$$V2.0 | 4% | ≥ 99%
PEPTIDE1{W.[DIT].K.G.K.L}$$$$V2.0 | 19% | ≥ 99%
PEPTIDE1{W.[DIT].R.G.R.L}$$$$V2.0 | 4% | ≥ 98%
PEPTIDE1{[DIT].W.G.K.K.L}$$$$V2.0 | 19% | ≥ 98%
PEPTIDE1{[DIT].W.[DIT].K.G.K.L}$$$$V2.0 | 20% | ≥ 97%
PEPTIDE1{[DIT].W.[DIT].R.G.R.L}$$$$V2.0 | 1% | ≥ 96%
PEPTIDE1{[DIT].[AEEA].W.Y.K.G.K.L}$$$$V2.0 | 26% | ≥ 98%
PEPTIDE1{[DIT].[DIT].[AEEA].W.Y.K.G.K.L}$$$$V2.0 | 5% | ≥ 99%

Reference: article PMC9089912 (PLoS ONE, 2022)
